No constants are given. Whether binding was seen depends on the method and setting. For some assays here: Binding calls can cover weak binding; strength is not graded here.
How the values were obtained:
HsMMACHC R161Q (human) = HsMMACHC R161Q (human) (UniProt Q9Y4U1); experiment: native gel or EMSA; blue native-PAGE; 25 μM of each protein with 50 μM MeCbl and 8 mM GSH, preincubated in the dark at room temperature for 1 h; complex judged by an additional band; both purified
HsMMACHC ΔPNR (human) = HsMMACHC ΔPNR (human) (UniProt Q9Y4U1); experiment: as above

Sequences of proteins named here, by UniProt entry; tags and fusion partners are left off. A change or cut given only in a name is not applied to a line headed by its entry.
UniProt Q9Y4U1: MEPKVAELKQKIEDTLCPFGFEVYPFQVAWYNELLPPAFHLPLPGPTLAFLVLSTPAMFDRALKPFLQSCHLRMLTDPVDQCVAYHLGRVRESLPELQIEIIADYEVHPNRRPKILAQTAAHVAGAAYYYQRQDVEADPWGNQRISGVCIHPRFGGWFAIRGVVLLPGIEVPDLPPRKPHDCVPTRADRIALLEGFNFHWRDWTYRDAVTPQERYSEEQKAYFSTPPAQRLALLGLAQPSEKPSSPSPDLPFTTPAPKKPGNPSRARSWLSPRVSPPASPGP

B1: HsMMADHCΔ123 (domain or fragment, human, UniProt Q9H3L0 124-296, looked up)
chain: QGNDAPVEQEINSAETYFESARVECAIQTCPELLRKDFESLFPEVANGKLMILTVTQKTKNDMTVWSEEVEIEREVLLEKFINGAKEICYALRAEGYWADFIDPSSGLAFFGPYTNNTLFETDERYRHLGFSVDDLGCCKVIRHSLWGTHVVVGSIFTNATPDSHIMKKLSGN
notes: human MMADHC (296 aa) with N-terminal truncation Δ123; source: E. coli BL21(DE3)R3, purified (Ni-Sepharose, Superdex 200)
Q: Which results are given for B1?
A: binding (HsMMACHC R161Q (human)): binds; binding (HsMMACHC ΔPNR (human)): no binding (tested: 25 μM)

— PMC4705923, “Structural Insights into the MMACHC-MMADHC Protein Complex Involved in Vitamin B12 Trafficking*” (The Journal of Biological Chemistry, 2015)
